Reference: the supplement of paper PMC4604168 (melanoma cell lines)
Some of the results follow. Many values rest on one well or one pass, so single values are uncertain.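 Cells were imaged in 1,536-well plates, and nuclei stained with an antibody against cleaved PARP were counted against all DNA-stained nuclei to give the apoptosis fraction. Screening doses were chosen to leave most cells alive, and resting and induced cleaved-PARP levels differ strongly between cell lines.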

Tests used:
Test in all cases: cleaved PARP positive nuclei fraction relative to DMSO control; melanoma cells; higher = more apoptosis
Conditions in all cases: library dose: low library concentration; 72 h
[1] = test system: 501Mel
[2] = test system: A101D
[3] = test system: A2058
[4] = test system: A375
[5] = test system: C32
[6] = test system: CBRC008 (line from a melanoma biopsy)
[7] = test system: CBRC013 (line from a melanoma biopsy)
[8] = test system: CBRC014 (line from a melanoma biopsy)
[9] = test system: CBRC016 (line from a melanoma biopsy)
[10] = test system: CBRC017 (line from a melanoma biopsy)
[11] = test system: COLO792
[12] = test system: COLO800
[13] = test system: COLO829
[14] = test system: G361
[15] = test system: IPC-298
[16] = test system: IST-MEL1
[17] = test system: LB2518-MEL
[18] = test system: LOXIMVI
[19] = test system: MEL-HO

Row | SMILES | cleaved PARP positive nuclei fraction [1] | cleaved PARP positive nuclei fraction [2] | cleaved PARP positive nuclei fraction [3] | cleaved PARP positive nuclei fraction [4] | cleaved PARP positive nuclei fraction [5] | cleaved PARP positive nuclei fraction [6] | cleaved PARP positive nuclei fraction [7] | cleaved PARP positive nuclei fraction [8] | cleaved PARP positive nuclei fraction [9] | cleaved PARP positive nuclei fraction [10] | cleaved PARP positive nuclei fraction [11] | cleaved PARP positive nuclei fraction [12] | cleaved PARP positive nuclei fraction [13] | cleaved PARP positive nuclei fraction [14] | cleaved PARP positive nuclei fraction [15] | cleaved PARP positive nuclei fraction [16] | cleaved PARP positive nuclei fraction [17] | cleaved PARP positive nuclei fraction [18] | cleaved PARP positive nuclei fraction [19]
1 | Nc1ncn([C@H]2C[C@H](O)[C@@H](CO)O2)c(=O)n1 [decitabine] + CC(C)(C)c1cnc(CSc2cnc(NC(=O)C3CCNCC3)s2)o1 [SNS-032] (first compound 0.1 µM, partner dose 0.01 µM) | 157% | 172% | 69.5% | 195% | 129% | 134% | 136% | 93.1% | 97.3% | 217% | 126% | 174% | 87.3% | 157% | 127% | 236% | 95.9% | 32.4% | 211%
2 | Nc1nc(F)nc2c1ncn2[C@@H]1O[C@H](CO)[C@@H](O)[C@@H]1O [fludarabine] + C[C@@H]1CCN(C(=O)CC#N)C[C@@H]1N(C)c1ncnc2[nH]ccc12 [CP690550] (first compound 0.2 µM, partner dose 1 µM) | 1230% | 90% | 84.8% | 7190% | 101% | 49.1% | 698% | 86.1% | 75.5% | 111% | 157% | 115% | 54.8% | 79% | 95.6% | 143% | 179% | 76.8% | 138%
3 | CO[C@H]1C[C@@H]2CC[C@@H](C)[C@@](O)(O2)C(=O)C(=O)N2CCCC[C@H]2C(=O)O[C@H]([C@H](C)C[C@@H]2CC[C@@H](OCCO)[C@H](OC)C2)CC(=O)[C@H](C)/C=C(\C)[C@@H](O)[C@@H](OC)C(=O)[C@H](C)C[C@H](C)/C=C/C=C/C=C/1C [everolimus] + O=C(CCCCCCC(=O)Nc1ccccc1)NO [vorinostat] (first compound 0.02 µM, partner dose 0.08 µM) | 289% | 105% | 122% | 80% | 72.7% | 51.7% | 43.2% | 66.1% | 174% | 121% | 213% | 68.5% | 130% | 44.4% | 34.1% | 95.3% | 40.3% | 114% | 256%
4 | CO[C@H]1C[C@@H]2CC[C@@H](C)[C@@](O)(O2)C(=O)C(=O)N2CCCC[C@H]2C(=O)O[C@H]([C@H](C)C[C@@H]2CC[C@@H](OCCO)[C@H](OC)C2)CC(=O)[C@H](C)/C=C(\C)[C@@H](O)[C@@H](OC)C(=O)[C@H](C)C[C@H](C)/C=C/C=C/C=C/1C [everolimus] + NC(=O)Nc1cc(-c2cccc(F)c2)sc1C(=O)N[C@H]1CCCNC1 [AZD7762] (first compound 0.02 µM, partner dose 0.02 µM) | 227% | 117% | 62.4% | 12000% | 207% | 295% | 97.9% | 105% | 173% | 69.6% | 27.7% | 242% | 106% | 159% | 117% | 112% | 252% | 399% | 182%
5 | CN1CCN(c2ccc3nc(-c4c(N)c5c(F)cccc5[nH]c4=O)[nH]c3c2)CC1 [Dovitinib] + O=C(Nc1cccc(Cl)c1)Nc1ncc(CCNc2ncnc3ccsc23)s1 [SNS314] (first compound 0.1 µM, partner dose 0.0008 µM) | 119% | 77.9% | 66.7% | 65% | 93.3% | 192% | 86.5% | 73.1% | 42.6% | 75.9% | 97.1% | 94% | 73.3% | 78% | 192% | 94.9% | 60.9% | 218% | 121%
6 | C[C@@H](Oc1cc(-c2cnn(C3CCNCC3)c2)cnc1N)c1c(Cl)ccc(F)c1Cl [Crizotinib] + C=CCn1c(=O)c2cnc(Nc3ccc(N4CCN(C)CC4)cc3)nc2n1-c1cccc(C(C)(C)O)n1 [MK1775] (first compound 0.2 µM, partner dose 0.02 µM) | 80.5% | 211% | 210% | 43.7% | 88.4% | 160% | 71.4% | 135% | 159% | 102% | 83.5% | 71.7% | 71.9% | 95.2% | 94.8% | 211% | 123% | 57% | 74.9%
7 | CC(C)C[C@H](NC(=O)[C@H](Cc1ccccc1)NC(=O)c1cnccn1)B(O)O [Bortezomib] + O=C(CCCCCCC(=O)Nc1ccccc1)NO [vorinostat] (first compound 0.001 µM, partner dose 0.08 µM) | 224% | 418% | 84.3% | 77.8% | 65.2% | 2090% | 60.2% | 182% | 411% | 393% | 147% | 72.7% | 47.5% | 1510% | 72.3% | 116% | 229% | 60.1% | 110%
8 | CS(=O)(=O)CCNCc1ccc(-c2ccc3ncnc(Nc4ccc(OCc5cccc(F)c5)c(Cl)c4)c3c2)o1 [lapatinib] + CO[C@@H]1[C@H](N(C)C(=O)c2ccccc2)C[C@H]2O[C@]1(C)n1c3ccccc3c3c4c(c5c6ccccc6n2c5c31)C(=O)NC4 [Midostaurin] (first compound 0.8 µM, partner dose 0.08 µM) | 70.5% | 293% | 288% | 72.5% | 110% | 389% | 106% | 118% | 157% | 96% | 141% | 78.3% | 24.6% | 111% | 147% | 180% | 275% | 274% | 107%
9 | Nc1ncn([C@H]2C[C@H](O)[C@@H](CO)O2)c(=O)n1 [decitabine] + OCCn1cc(-c2cnc3nnn(Cc4ccc5ncccc5c4)c3n2)cn1 [PF04217903] (first compound 0.1 µM, partner dose 1 µM) | 148% | 98.4% | 107% | 67.3% | 82.3% | 173% | 99.4% | 99.6% | 198% | 56% | 297% | 199% | 229% | 104% | 87.4% | 76.4% | 60.5% | 45.5% | 82.1%
10 | Nc1nc(F)nc2c1ncn2[C@@H]1O[C@H](CO)[C@@H](O)[C@@H]1O [fludarabine] + Cn1cncc1[C@@](N)(c1ccc(Cl)cc1)c1ccc2c(c1)c(-c1cccc(Cl)c1)cc(=O)n2C [tipifarnib] (first compound 0.2 µM, partner dose 0.01 µM) | 1480% | 96.6% | 139% | 12800% | 145% | 71.8% | 868% | 111% | 218% | 99% | 32.2% | 152% | 171% | 140% | 109% | 47.4% | 120% | 122% | 102%
11 | O=C(O)c1ccc2c(c1)nc(Nc1cccc(Cl)c1)c1ccncc12 + O=C(Nc1cccc(Cl)c1)Nc1ncc(CCNc2ncnc3ccsc23)s1 [SNS314] (first compound 0.4 µM, partner dose 0.0008 µM) | 74.6% | 67.4% | 171% | 84.5% | 96.8% | 111% | 107% | 120% | 139% | 168% | 89.4% | 198% | 112% | 120% | 92.8% | 140% | 58.4% | 38.9% | 72.2%
12 | CNC(=O)c1cc(Oc2ccc(NC(=O)Nc3ccc(Cl)c(C(F)(F)F)c3)cc2)ccn1 [sorafenib] + Cc1ccc(NC(=O)c2cccc(N(C)C)c2)cc1NC(=O)c1ccc(O)cc1 [ZM336372] (first compound 0.4 µM, partner dose 2 µM) | 181% | 87% | 86.8% | 48.1% | 131% | 116% | 73.3% | 77.2% | 73.5% | 107% | 54.9% | 61.2% | 92.2% | 74% | 184% | 1330% | 86.3% | 18.7% | 66.4%
13 | Cc1cc(Nc2cc(N3CCN(C)CC3)nc(/C=C/c3ccccc3)n2)n[nH]1 + COc1cc(Nc2ncc(F)c(Nc3ccc4c(n3)NC(=O)C(C)(C)O4)n2)cc(OC)c1OC [Tamatinib] (first compound 0.04 µM, partner dose 0.4 µM) | 40.5% | 80.8% | 117% | 57.1% | 143% | 126% | 137% | 95% | 27.2% | 92.5% | 224% | 111% | 22.2% | 66.9% | 57.8% | 49.9% | 422% | 191% | 71%
14 | Cc1cc(Nc2cc(N3CCN(C)CC3)nc(/C=C/c3ccccc3)n2)n[nH]1 + CO[C@@H]1[C@H](N(C)C(=O)c2ccccc2)C[C@H]2O[C@]1(C)n1c3ccccc3c3c4c(c5c6ccccc6n2c5c31)C(=O)NC4 [Midostaurin] (first compound 0.04 µM, partner dose 0.08 µM) | 87.3% | 66% | 94.7% | 169% | 315% | 131% | 108% | 88.2% | 205% | 105% | 95.7% | 117% | 64.3% | 235% | 31.8% | 69% | 160% | 295% | 61.8%
15 | CNC(=O)c1cc(Oc2ccc(NC(=O)Nc3ccc(Cl)c(C(F)(F)F)c3)cc2)ccn1 [sorafenib] + C[C@@H]1CCN(C(=O)CC#N)C[C@@H]1N(C)c1ncnc2[nH]ccc12 [CP690550] (first compound 0.4 µM, partner dose 1 µM) | 87.4% | 79.5% | 126% | 85.1% | 117% | 90.3% | 95.4% | 469% | 22% | 96.9% | 46.6% | 64.7% | 149% | 48% | 47.5% | 201% | 19.3% | 194% | 186%
16 | C[C@@H](Oc1cc(-c2cnn(C3CCNCC3)c2)cnc1N)c1c(Cl)ccc(F)c1Cl [Crizotinib] + COc1cc2c(Oc3ccc4[nH]c(C)cc4c3F)ncnc2cc1OCCCN1CCCC1 [cediranib] (first compound 0.2 µM, partner dose 0.4 µM) | 86.5% | 77.4% | 106% | 48.7% | 52.3% | 47.6% | 156% | 94.8% | 97.3% | 96.3% | 114% | 63.4% | 116% | 69.1% | 70.2% | 66.4% | 109% | 57.7% | 62.7%
17 | CCCS(=O)(=O)Nc1ccc(F)c(C(=O)c2c[nH]c3ncc(Cl)cc23)c1F + COc1cc(Nc2ncc(F)c(Nc3ccc4c(n3)NC(=O)C(C)(C)O4)n2)cc(OC)c1OC [Tamatinib] (first compound 0.08 µM, partner dose 0.4 µM) | 175% | 118% | 133% | 121% | 63.2% | 257% | 122% | 74.4% | 79.6% | 88.8% | 249% | 90.2% | 56.6% | 194% | 30.1% | 153% | 111% | 54.6% | 106%

A second format for some results above:
Row,SMILES,cleaved PARP positive nuclei fraction [1],cleaved PARP positive nuclei fraction [2],cleaved PARP positive nuclei fraction [3],cleaved PARP positive nuclei fraction [4],cleaved PARP positive nuclei fraction [5],cleaved PARP positive nuclei fraction [6],cleaved PARP positive nuclei fraction [7],cleaved PARP positive nuclei fraction [8],cleaved PARP positive nuclei fraction [9],cleaved PARP positive nuclei fraction [10],cleaved PARP positive nuclei fraction [11],cleaved PARP positive nuclei fraction [12],cleaved PARP positive nuclei fraction [13],cleaved PARP positive nuclei fraction [14],cleaved PARP positive nuclei fraction [15],cleaved PARP positive nuclei fraction [16],cleaved PARP positive nuclei fraction [17],cleaved PARP positive nuclei fraction [18],cleaved PARP positive nuclei fraction [19]
2,"Nc1nc(F)nc2c1ncn2[C@@H]1O[C@H](CO)[C@@H](O)[C@@H]1O [fludarabine] + C[C@@H]1CCN(C(=O)CC#N)C[C@@H]1N(C)c1ncnc2[nH]ccc12 [CP690550] (first compound 0.2 µM, partner dose 1 µM)",1230%,90%,84.8%,7190%,101%,49.1%,698%,86.1%,75.5%,111%,157%,115%,54.8%,79%,95.6%,143%,179%,76.8%,138%
3,"CO[C@H]1C[C@@H]2CC[C@@H](C)[C@@](O)(O2)C(=O)C(=O)N2CCCC[C@H]2C(=O)O[C@H]([C@H](C)C[C@@H]2CC[C@@H](OCCO)[C@H](OC)C2)CC(=O)[C@H](C)/C=C(\C)[C@@H](O)[C@@H](OC)C(=O)[C@H](C)C[C@H](C)/C=C/C=C/C=C/1C [everolimus] + O=C(CCCCCCC(=O)Nc1ccccc1)NO [vorinostat] (first compound 0.02 µM, partner dose 0.08 µM)",289%,105%,122%,80%,72.7%,51.7%,43.2%,66.1%,174%,121%,213%,68.5%,130%,44.4%,34.1%,95.3%,40.3%,114%,256%
12,"CNC(=O)c1cc(Oc2ccc(NC(=O)Nc3ccc(Cl)c(C(F)(F)F)c3)cc2)ccn1 [sorafenib] + Cc1ccc(NC(=O)c2cccc(N(C)C)c2)cc1NC(=O)c1ccc(O)cc1 [ZM336372] (first compound 0.4 µM, partner dose 2 µM)",181%,87%,86.8%,48.1%,131%,116%,73.3%,77.2%,73.5%,107%,54.9%,61.2%,92.2%,74%,184%,1330%,86.3%,18.7%,66.4%
